Assay results as given in patent publication US8519154B2, “Method for treatment of bronchial asthma” (Council of Scientific & Industrial Research, priority 2011, dated 2013).
At least one read-out could not be matched to a standard name with certainty.

Assay: Determination of pharmacokinetics in mice
Type: in vivo, swiss mice
Details: oral administration
Description: Treatment of animal: Healthy swiss mice of both the sexes (25-30) were used. The animals were kept (3/cage) under controlled conditions (temp 26±2° C.; relative humidity 50±5%; 12 h light/dark cycle) and maintained on pelleted rodent diet […]. Ashirwad Industries Ltd. Chandigarh, India). Water was provided ad libitum. Compound I was solubilised in 2% gum acacia by trituration and diluted with normal saline to obtained desired concentration. The compound was administered orally (20 mg/kg BW) or via intravenous route (10 mg/kg bw).
Sampling time: Blood samples were collected at 0, 5, 15 and 30 min, and 1, 2, 4, 6, 8, 16 and 24 hrs post-administration after oral/iv route in pre-labeled heparinised tubes and centrifuged (3500 rpm×10 minutes) to obtain the plasma. […]
Column: RP-8 (5 um); Mobile Phase: Acetonitrile:Water (51:49); Wavelength: 272 nm Flow Rate: 1 ml/min; Retention time: 8.035 min; The lower limit of detection (LOD): 3.5 ng/ml; limit of quantitation (LOQ): 10 ng/ml.
Bioavailability indices. A concentration-time curve for Molecule D8 was established and pharmacokinetic parameters (Cmax, Tmax, AUC0-24, Clerance (Cl) and Volume of Distribution (vd) were determined by using a software (PK Solutions version 2.0; Summit Research Services, USA).
Absolute bioavailability was determined using the following formula: AUCoral×doseiv/AUCv×Doseoral.

COc1cc(C=O)cc2c1[nH]c1ccccc12 [Compound I, 1-methoxy-3-formyl-9H carbazole]
time at which Cmax is attained: 1 h
